For 1 molecule, binding results are on record in publication PMC10064996.

The test has as its target T1, FHY3-cLUC (UniProt Q9LIE5).
T1 sequence: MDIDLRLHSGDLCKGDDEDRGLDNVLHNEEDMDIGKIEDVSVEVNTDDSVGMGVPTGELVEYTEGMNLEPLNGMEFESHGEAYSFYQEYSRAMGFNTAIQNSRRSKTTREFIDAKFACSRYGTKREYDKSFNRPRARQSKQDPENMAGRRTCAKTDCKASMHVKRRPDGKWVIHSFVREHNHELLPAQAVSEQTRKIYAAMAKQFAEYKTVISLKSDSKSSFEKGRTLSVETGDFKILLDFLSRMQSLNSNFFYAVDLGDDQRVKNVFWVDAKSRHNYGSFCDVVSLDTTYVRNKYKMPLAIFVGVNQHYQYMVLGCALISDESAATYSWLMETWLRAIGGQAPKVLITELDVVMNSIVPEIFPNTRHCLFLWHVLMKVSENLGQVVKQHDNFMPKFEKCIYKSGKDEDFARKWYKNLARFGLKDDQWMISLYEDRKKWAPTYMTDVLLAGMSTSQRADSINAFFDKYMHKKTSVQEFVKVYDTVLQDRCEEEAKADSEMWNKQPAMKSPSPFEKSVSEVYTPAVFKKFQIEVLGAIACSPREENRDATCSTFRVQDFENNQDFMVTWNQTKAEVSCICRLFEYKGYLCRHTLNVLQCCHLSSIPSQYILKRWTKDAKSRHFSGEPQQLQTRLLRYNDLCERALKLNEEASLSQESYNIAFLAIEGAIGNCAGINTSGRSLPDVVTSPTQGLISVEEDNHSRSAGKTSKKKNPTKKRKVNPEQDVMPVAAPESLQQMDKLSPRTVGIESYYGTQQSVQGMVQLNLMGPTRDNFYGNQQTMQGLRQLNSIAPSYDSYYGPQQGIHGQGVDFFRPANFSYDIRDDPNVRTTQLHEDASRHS
Description: split reporter; luciferase complementation imaging (LCI); nLUC and cLUC constructs, Agrobacterium mixed in equal amounts and injected into tobacco leaves; 1 mM luciferin, CCD imaging.

These are yes or no findings as the source states them, for the method shown. Binding seen in cells or lysates may run through a third protein. Some entries that bind do so weakly or less than the wild type. Sequences can lack the tags named with a protein.

B1: SPL3-nLUC (protein, UniProt P93015 1-131)
chain: MSMRRSKAEGKRSLRELSEEEEEEEETEDEDTFEEEEALEKKQKGKATSSSGVCQVESCTADMSKAKQYHKRHKVCQFHAKAPHVRISGLHQRFCQQCSRFHALSEFDEAKRSCRRRLAGHNERRRKSTTD
Consider B1, for which the binding entry is “binds”.
